Protein sequences, listed by entry. Tags and fused reporters are not part of them.
UniProt P47756: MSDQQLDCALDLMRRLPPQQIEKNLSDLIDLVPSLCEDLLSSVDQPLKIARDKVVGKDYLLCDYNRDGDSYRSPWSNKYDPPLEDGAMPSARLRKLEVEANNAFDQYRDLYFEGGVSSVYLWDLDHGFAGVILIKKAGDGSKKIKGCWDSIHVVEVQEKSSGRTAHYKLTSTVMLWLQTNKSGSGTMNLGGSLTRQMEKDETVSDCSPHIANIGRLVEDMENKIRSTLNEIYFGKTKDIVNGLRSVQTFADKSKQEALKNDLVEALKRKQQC
UniProt Q99426: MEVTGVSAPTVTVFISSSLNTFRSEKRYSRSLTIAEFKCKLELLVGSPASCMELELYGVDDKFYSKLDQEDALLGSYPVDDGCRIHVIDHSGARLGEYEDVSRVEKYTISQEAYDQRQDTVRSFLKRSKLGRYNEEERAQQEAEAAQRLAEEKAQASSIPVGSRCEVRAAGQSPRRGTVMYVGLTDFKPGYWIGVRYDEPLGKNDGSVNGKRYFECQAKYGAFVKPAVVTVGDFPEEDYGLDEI

According to article doi:10.1101/869123:

Molecular target: CRIPT (cysteine-rich interactor of PDZ-domain protein), wild type, in lysates of mitotic HeLa cells (human) (UniProt Q9P021)
Experiment: affinity purification with mass spectrometry

binding, binds:
APRC1B (printed ARPC1B in the methods), endogenous, mitotic HeLa cells (from UniProt O15143 1-372)
CAPZB, endogenous, mitotic HeLa cells (from UniProt P47756 1-272)
TBCB, endogenous, mitotic HeLa cells (from UniProt Q99426 1-244)

Results are given in words; binding and its absence hold for the method and conditions named. Binding seen in cells or lysates may run through a third protein. A yes stands for co-enrichment or nearness to the bait. Other partners may have been found.
